A short description of the assay: qHTS Assay for Lipid Storage Modulators in Drosophila S3 Cells.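 For cell number change: cells counted by Cell Tracker Red CMTPX staining in the red channel.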 As to conditions: BODIPY lipid droplet fluorescence, 18-24 h; for cell number change: measured here: cell count max response, cells fed with added oleic acid. The method in brief:
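Drosophila S3 cells got compounds at several concentrations plus oleic acid (400 uM solution). Laser-scanning cytometry with 488 nm excitation read lipid droplets at 500-530 nm and cells at 575-640 nm. Percent activity was relative to 20 uM Triacsin C.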

Where [1] appears, read: measured here: cell number channel AC50, cells fed with added oleic acid.
Setting [2] is: measured here: lipid fluorescence (Fed channel) AC50, cells fed with added oleic acid.

Our source for the cell number change and AC50 values is PubChem BioAssay AID2685 (National Center for Advancing Translational Sciences (NCATS), 2010).

SMILES strings stand for the structures. The list shows a part of the results. Further columns of the screen follow, without active or inactive calls. The list favours compounds with an active or inconclusive main result. Words in brackets tell the shape of the fitted curve; partial curves, single points and poor fits give uncertain potencies.

By AC50 is commonly meant the concentration at which the activity in the assay is half-maximal. Lower therefore signals activity at low concentration.

As to `O=C(Nc1ccc(C(=O)N2CCC(O)(c3ccc(Cl)c(C(F)(F)F)c3)CC2)cc1)c1ccc(Br)o1`, the cell number change is 3.96%. Further, under setting [1], the AC50 was 6.51 µM [falling, single point]. Also, under setting [2], the AC50 is 3.26 µM [falling, single point].

On to `CCC1SC(CC)C(=O)N(CC(=O)NC2CCCCC2)C1=O` (stereo not drawn), for which the cell number change was 1.68%. Also, the AC50 under setting [1] was 0.00517 µM [rising, full curve, poor fit].

Turning to `CCOC(=O)c1c(S(=O)(=O)NCC(=O)N2CCN(c3cccc(OC)c3)CC2)c(C)n(C)c1C`, the cell number change came out at 55.3%. Further, under setting [1], the AC50 is 29.1 µM [rising, single point]. For the same compound, under setting [2], the half-maximal activity concentration (AC50) is 29.1 µM [rising, single point].

For the compound `Fc1ccc(N2CCN(/C=C/c3nnnn3-c3ccccc3)CC2)cc1`, the half-maximal activity concentration (AC50) under setting [2] is 0.0058 µM [falling, full curve, poor fit].

As for `O=C1Nc2cc(C(=O)N3CCN(c4ccccc4F)CC3)ccc2NC1CSCc1ccccc1F` (stereo not drawn), the AC50 under setting [1] is 2.06 µM [rising, partial curve, poor fit].

Take `COc1ccc(OC(C)C(=O)Nc2ccccc2C(F)(F)F)cc1` (stereo not drawn): the cell number change was -7.22%. The concentration at half-maximal activity (AC50) under setting [2] is 18.4 µM [rising, single point].

On to `Cc1cccn2c(=O)nc(SCC(=O)N3CCCCCC3)nc12`, for which the AC50 under setting [1] is 2.06 µM [rising, single point].

As for `CC(C)[C@H](NC(=O)N1CC(=O)Nc2ccccc21)C(=O)N[C@@H](Cc1ccccc1)C(=O)O`, the cell number change was found to be 2.16%. The AC50 under setting [2] is 1.03 µM [rising, full curve, poor fit].

For `S=C(c1ccccc1)N1CCN(C(=S)c2ccccc2)CC1`, the cell number change amounted to 53.5%. Besides, under setting [1], the concentration at half-maximal activity (AC50) was 29.1 µM [rising, single point]. For the same compound, the concentration at half-maximal activity (AC50) under setting [2] was 0.058 µM [falling, full curve, poor fit].

For the compound `CC(=O)NC(Cc1c[nH]c2ccccc12)C(=O)OCC(=O)N1CCCCCC1` (stereo not drawn), the cell number change is -44.2%.

On to `N#C/C(=C\c1c[nH]c2ccccc12)C(=O)NC1CC1`, for which the cell number change came to 1.62%.

For `O=C(Nc1cccc(Cl)c1N1CCOCC1)c1cc([N+](=O)[O-])ccc1N1CCOCC1`, the AC50 under setting [2] was 8.2 µM [falling, single point].

Regarding `CS(=O)(=O)c1ccc(Cl)c(NC(=O)CSc2nnc(-c3cccs3)n2N)c1`, the cell number change is 12.4%. Besides, under setting [2], the half-maximal activity concentration (AC50) was 25.9 µM [rising, single point].

For `CC(C)CN(C(=O)CCC1CCCCC1)c1c(N)n(CC(C)C)c(=O)[nH]c1=O`, the cell number change was 6.4%. Moreover, under setting [2], the AC50 was 29.1 µM [rising, single point].

With `Cc1cc(C)cc(N(CC(=O)NCc2ccco2)C(=O)c2snc(C(N)=O)c2N)c1`, the cell number change is -9.59%. Moreover, the AC50 under setting [2] is 5.17 µM [falling, single point].

Regarding `Oc1[nH]c2ccccc2c1C=Nc1ccc2c(c1)OCO2`, the cell number change amounted to 8.67%. Further, the concentration at half-maximal activity (AC50) under setting [1] was 1.64 µM [rising, partial curve, poor fit].

Turning to `CC(=O)Nc1ccc(Nc2nnc(-c3ccc(C)c(S(N)(=O)=O)c3)c3ccccc23)cc1`, the cell number change came to 31.1%. In addition, under setting [1], the AC50 was 7.31 µM [rising, partial curve]. For the same compound, the concentration at half-maximal activity (AC50) under setting [2] is 20.6 µM [rising, single point].

`Cc1cccc(C)c1NC(=O)CSCCO`: the cell number change is -24.2%.

For `O=C1c2ccncc2C(=O)N1CNc1ccc(Cl)cc1`, the cell number change was -14.6%. Besides, the AC50 under setting [2] was 0.517 µM [falling, full curve, poor fit].

With `O=C(NCCc1cccc(Cl)c1)c1cccc(-n2cnnn2)c1`, the cell number change is -7.68%. Under setting [2], the half-maximal activity concentration (AC50) is 29.1 µM [falling, single point].

Take `CCOc1ccc(CCNC(=O)COC(=O)c2ccc(OC)c(OC)c2OC)cc1OCC`: the cell number change was -33%. Moreover, the concentration at half-maximal activity (AC50) under setting [2] is 16.4 µM [falling, partial curve, poor fit].

On to `CCOC(=O)C1CCCN(C/C(O)=C(\C#N)c2nc(-c3ccc(Cl)cc3)cs2)C1` (stereo not drawn), for which the half-maximal activity concentration (AC50) under setting [1] is 1.3 µM [rising, full curve].

`C=CCn1c(-c2ccccc2)c[nH]c1=S`: the half-maximal activity concentration (AC50) was 4.61 µM [rising, partial curve] under setting [1] and 2.31 µM [rising, partial curve] under setting [2].

As to `O=C1CSC(=S)N1`, the cell number change was 14.6%.

Take `O=C(CSc1nnc(CNC(=O)c2c(F)cccc2Cl)o1)Nc1ccccc1`: the cell number change came to 32.8%. Further, the half-maximal activity concentration (AC50) under setting [1] was 0.517 µM [rising, partial curve, poor fit]. The AC50 under setting [2] is 6.51 µM [rising, single point].

As for `CCOc1ccc2c(c1)cc(CN(C(=O)CC)C1CCCCC1)c1nnnn12`, the cell number change is -4.43%. Further, the concentration at half-maximal activity (AC50) under setting [2] is 0.13 µM [falling, full curve, poor fit].

In the case of `Nc1c(-c2cccc(Cl)c2)cnn1-c1cccc(C(F)(F)F)c1`, the cell number change was -0.837%. The concentration at half-maximal activity (AC50) under setting [1] was 0.651 µM [rising, single point]. The half-maximal activity concentration (AC50) under setting [2] was 29.1 µM [falling, single point].

On to `Cc1nc(NC(=O)CSc2nnnn2C)sc1C`, for which the cell number change amounted to 1.88%. Also, the half-maximal activity concentration (AC50) under setting [2] was 7.31 µM [rising, single point].

Take `CCCC12CN3CC(CCC)(CN(C1)C3c1ccco1)C2=O` (stereo not drawn): the cell number change is -11.2%.

With `CCc1c(C)nc(N2CCN(c3ccc(OC)cc3)CC2)[nH]c1=O`, the cell number change amounted to 20.7%. In addition, the AC50 under setting [2] is 29.1 µM [rising, single point].

As to `O=C(NNC(=O)c1ccccc1C(=O)O)c1ccc(S(=O)(=O)N2CCCCC2)cc1`, the cell number change came to 9.27%.

As to `CCN(CC)C(=O)/C(=C\c1cccc([N+](=O)[O-])c1)NC(=O)c1ccco1`, the cell number change was determined as 2.91%. The half-maximal activity concentration (AC50) under setting [2] was 23.1 µM [rising, single point].

On to `COc1cc(OC)c(OC)cc1CN1CCN(Cc2ccc(C(F)(F)F)cc2)CC1`, for which the cell number change was -9.07%. Also, the AC50 under setting [2] was 32.6 µM [falling, single point].

As to `COc1ccc(CCC(=O)Nc2nc3c(s2)CN(C)CC3)cc1OC`, the cell number change worked out at 3.03%.

In the case of `O=[N+]([O-])c1cnc2nc(-c3ccncc3)nn2c1O`, the cell number change was found to be 102%. Under setting [1], the AC50 was 5.8 µM [rising, full curve]. For the same compound, the AC50 under setting [2] was 6.51 µM [rising, partial curve, poor fit].

Take `CS(=O)(=O)N1CCN(c2ccccc2NC(=O)Nc2cccc(Cl)c2)CC1`: the cell number change is -1.04%. Also, the AC50 under setting [2] was 13 µM [falling, partial curve, poor fit].

Consider `N#Cc1ccc(-c2cccnc2)nc1SCC(=O)c1ccccc1`, for which the cell number change was -19%. The half-maximal activity concentration (AC50) under setting [2] was 29.1 µM [falling, single point].

Take `Cc1cc(OC(C)C(=O)N2CCN(c3ccc(F)cc3)CC2)c2c(C)cc(=O)oc2c1` (stereo not drawn): the cell number change came to 8.24%.

Regarding `Cc1cccc(NC(=O)CSc2nccn2Cc2ccco2)c1C`, the cell number change came to 30.3%. Also, the AC50 under setting [1] is 7.08 µM [rising, full curve, poor fit]. For the same compound, the AC50 under setting [2] is 17.8 µM [rising, single point].
